{"source": "PubChem BioAssay AID504467", "about": "(National Center for Advancing Translational Sciences (NCATS), 2011)", "note": "Out of some 330,000 compounds screened, about 7,700 (2.3%) were called active. Inconclusive results, whose numbers are uncertain, are shown with a selection of clear calls. The call rests on the fitted dose curve; in most records, active means well fitted inhibition curve with a large enough effect; inconclusive means small, poorly fitted or top-dose-only effect, or effect the other way; inactive means flat fitted curve, though single readings scatter. Where the call is inconclusive, the potency comes from a doubtful curve fit. On the % scale 0 is the no-effect control and ±100 the full control effect; potency means the concentration at half of the fitted maximal effect.", "data": [{"experiment": "qHTS screen for small molecules that inhibit ELG1-dependent DNA repair in human embryonic kidney (HEK293T) cells expressing luciferase-tagged ELG1; further: nearly all actives have a fitted effect of over 55% in size", "details": "HEK293T ELG1-luciferase reporter, luminescence, 16 h, DNA damage induced by 5-fluorouridine; activity change, negative = inhibition: at 46.1 µM (top of the series)", "method_in_brief": "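Quantitative HTS, concentration-response format. 2,000 cells/well co-treated with 5-fluorouridine and compound, 16 hr in 5% CO2 at 37 °C; ONE-Glo luminescence read after 30 min.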", "values": [{"smiles": "Cc1c(NC(=O)C(C)OC(=O)CNC(=O)c2ccc(C(C)(C)C)cc2)c(=O)n(-c2ccccc2)n1C", "note": "(stereo not given)", "Potency": "inconclusive: 25.9 µM [activator, single point]"}, {"smiles": "COC(=O)c1ccc2c(c1)SC1=C(CCCC1=O)N2", "Potency": "inconclusive: 17.8 µM [activator, single point]"}, {"smiles": "Cc1cc(C(=O)NC2Cc3ccccc3C2)c(C)o1", "Potency": "inconclusive: 16.4 µM [activator, partial curve]"}, {"smiles": "COc1ccc(C(=O)NNC(=O)c2ccc(S(=O)(=O)N3CC(C)OC(C)C3)cc2)cc1", "note": "(stereo not given)", "Potency": "inconclusive: 0.58 µM [inhibitor, single point]"}, {"smiles": "C=CCc1cccc(C=Nc2c[nH]c(=O)[nH]c2=O)c1O", "activity change, negative = inhibition": "inactive: -6.61%"}, {"smiles": "Cc1ccc(OCC(=O)NCc2ccco2)cc1C", "activity change, negative = inhibition": "inactive: 24.1%"}, {"smiles": "O=C(Cc1ccccc1)NNc1ccc2ccccc2c1", "activity change, negative = inhibition": "inactive: -2.94%"}, {"smiles": "CCN(CC(=O)Nc1ccccc1C(F)(F)F)C(=O)Cc1ccc2c(c1)CCC2", "activity change, negative = inhibition": "inactive: -19.6%"}, {"smiles": "COc1ccc(-c2cc(CCCC(=O)NCCc3ccccc3)no2)cc1", "Potency": "inconclusive: 3.66 µM [activator, full curve, poor fit]"}, {"smiles": "Cc1ccc(CN(Cc2cc3cc4c(cc3[nH]c2=O)OCCO4)Cc2nnnn2Cc2ccco2)cc1", "Potency": "active: 23.1 µM"}, {"smiles": "CSc1ccccc1NC(=O)c1cc2c(=O)n3ccccc3nc2s1", "Potency": "inconclusive: 11.6 µM [activator, partial curve]"}, {"smiles": "Cc1ccc(NC(=O)c2ncn(CC(=O)N3CCN(c4ccccn4)CC3)n2)cc1C", "activity change, negative = inhibition": "inactive: 12.6%"}, {"smiles": "O=C(Cc1ccsc1)NCC(=O)Nc1ccc(F)c(F)c1", "activity change, negative = inhibition": "inactive: 15.8%"}, {"smiles": "Cc1cnc(C(=O)OCC(=O)Nc2ccc(OCc3ccccc3)cc2)cn1", "Potency": "inconclusive: 16.4 µM [activator, partial curve]"}, {"smiles": "COc1cc2c(cc1OC)CN(C(=O)Cc1ccccc1)CC2", "activity change, negative = inhibition": "inactive: 0.974%"}, {"smiles": "Cn1cc(CNCc2ccc(-n3cccn3)cc2)c(-c2ccccc2F)n1", "Potency": "inconclusive: 23.1 µM [inhibitor, single point]"}, {"smiles": "C[C@]12c3[nH]c4ccc(Cl)cc4c3CCN1C(=O)[C@@H](CC(=O)NCc1cccc(C(F)(F)F)c1)C[C@@H]2C(=O)N1CCOCC1", "Potency": "active: 23.1 µM"}, {"smiles": "CN(CC(=O)Nc1ccccc1Br)CC(=O)Nc1ccccc1C(F)(F)F", "activity change, negative = inhibition": "inactive: -27%"}, {"smiles": "CN(Cc1ccccc1)S(=O)(=O)c1ccc(Cl)c(C(=O)NCc2ccncc2)c1", "Potency": "inconclusive: 7.3 µM [inhibitor, single point]"}, {"smiles": "Cc1cc(N/N=C/c2cccc(Br)c2)nc2ccccc12", "Potency": "inconclusive: 14.6 µM [activator, partial curve]"}, {"smiles": "O=C(Nc1ccccc1Oc1cccnc1)C1CCCN(C/C=C/c2ccccc2)C1", "note": "(stereo not given)", "Potency": "inconclusive: 6.51 µM [inhibitor, single point]"}, {"smiles": "CN(c1ccccc1)S(=O)(=O)c1cccc(NC(=O)CCNC(=O)c2ccc(Cl)cc2)c1", "Potency": "inconclusive: 25.9 µM [inhibitor, single point]"}, {"smiles": "COC(=O)c1c(-c2ccc(OC)cc2)sc2ccccc12", "Potency": "inconclusive: 14.6 µM [activator, partial curve, poor fit]"}, {"smiles": "COc1ccc(S(=O)(=O)Nc2cccc(-c3ccc4nncn4n3)c2)c(OC)c1", "activity change, negative = inhibition": "inactive: 2.27%"}, {"smiles": "CC1=C(C(=O)Nc2ccccc2)C(c2ccc(C)cc2)N=C(Nc2nc3ccccc3o2)N1", "note": "(stereo not given)", "Potency": "inconclusive: 29.1 µM [activator, single point]"}, {"smiles": "CCCn1c(=O)c(C(=O)NCCc2ccc(OC)cc2)c(O)c2ccccc21", "activity change, negative = inhibition": "inactive: -11.7%"}, {"smiles": "COc1ccc2c(c1OC)C(=O)OC2Nc1ccccc1S(=O)(=O)C(F)F", "note": "(stereo not given)", "activity change, negative = inhibition": "inactive: 16.4%"}, {"smiles": "Cc1cccc(NC(=O)CN2C(=O)N/C(=C/c3ccc(C)o3)C2=O)c1", "Potency": "inconclusive: 14.6 µM [activator, partial curve, poor fit]"}, {"smiles": "COc1cc(/C=N/NC(=O)c2cccnc2)ccc1OC(=O)c1cc(OC)c(OC)c(OC)c1", "Potency": "inconclusive: 29.1 µM [inhibitor, single point]"}, {"smiles": "CNC(=S)N1N=C(c2ccc(Br)cc2)CC1c1ccc(Br)cc1", "note": "(stereo not given)", "Potency": "active: 5.8 µM"}, {"smiles": "COc1ccccc1NC(=O)Nc1ccncc1", "activity change, negative = inhibition": "inactive: -4.81%"}, {"smiles": "COc1ccccc1CNS(=O)(=O)c1cc(C(=O)NCc2ccccn2)c(Cl)cc1Cl", "activity change, negative = inhibition": "inactive: -4.45%"}, {"smiles": "CCOC(=O)c1ccc(NC(=O)c2cccc(S(=O)(=O)N3CCOCC3)c2)cc1", "Potency": "active: 23.1 µM"}, {"smiles": "CC(C)C[C@H](NC(=O)c1nc[nH]c1C(=O)NCc1ccccc1)C(=O)OCc1ccccc1", "Potency": "inconclusive: 16.4 µM [inhibitor, partial curve, poor fit]"}, {"smiles": "CC(C)(C)c1nnc(NC(=O)C2c3ccccc3Oc3ccccc32)s1", "Potency": "inconclusive: 29.1 µM [inhibitor, single point]"}, {"smiles": "O=C(Nc1nccs1)c1csc2c1CCCC2", "Potency": "inconclusive: 13 µM [activator, partial curve]"}, {"smiles": "Cc1cccc2cc(CN(Cc3ccco3)C(=O)c3ccncc3)c(=O)[nH]c12", "Potency": "active: 11.2 µM"}, {"smiles": "CCOC(=O)C1=C(c2ccccc2)N=c2s/c(=C\\c3ccc(O)cc3)c(=O)n2C1c1cccs1", "note": "(stereo not given)", "Potency": "inconclusive: 3.66 µM [inhibitor, single point]"}, {"smiles": "Fc1ccc(COc2ccc3ccccc3c2CNc2nn[nH]n2)cc1", "Potency": "inconclusive: 16.4 µM [inhibitor, single point]"}, {"smiles": "COc1cc(-c2cc(C(F)(F)F)n3ncc(C(=O)O)c3n2)cc(OC)c1OC", "Potency": "active: 4.11 µM"}, {"smiles": "O=C(/C=C/c1ccco1)Nc1cccc(NC(=O)/C=C/c2ccco2)n1", "Potency": "inconclusive: 29.1 µM [inhibitor, single point]"}, {"smiles": "Cc1cc(=O)[nH]c2cc(O)ccc12", "Potency": "inconclusive: 23.1 µM [activator, partial curve, poor fit]"}, {"smiles": "Cc1cccc(NC(=O)CCCn2c(=S)[nH]c3ccccc3c2=O)c1", "activity change, negative = inhibition": "inactive: -14.7%"}, {"smiles": "Cc1ccc(S(=O)(=O)N2CCN(C3CCN(Cc4ccccc4)CC3)CC2)cc1", "Potency": "inconclusive: 3.66 µM [inhibitor, single point]"}, {"smiles": "COc1ccc(/C=C/C2=CCN(Cc3ccc(OC)cc3)CC2)cc1", "Potency": "inconclusive: 1.83 µM [inhibitor, partial curve, poor fit]"}]}]}
